# Measurements published in publication PMC10787506.
# The chains behind the UniProt entries cited, without tags or fusion partners.
# UniProt P45974: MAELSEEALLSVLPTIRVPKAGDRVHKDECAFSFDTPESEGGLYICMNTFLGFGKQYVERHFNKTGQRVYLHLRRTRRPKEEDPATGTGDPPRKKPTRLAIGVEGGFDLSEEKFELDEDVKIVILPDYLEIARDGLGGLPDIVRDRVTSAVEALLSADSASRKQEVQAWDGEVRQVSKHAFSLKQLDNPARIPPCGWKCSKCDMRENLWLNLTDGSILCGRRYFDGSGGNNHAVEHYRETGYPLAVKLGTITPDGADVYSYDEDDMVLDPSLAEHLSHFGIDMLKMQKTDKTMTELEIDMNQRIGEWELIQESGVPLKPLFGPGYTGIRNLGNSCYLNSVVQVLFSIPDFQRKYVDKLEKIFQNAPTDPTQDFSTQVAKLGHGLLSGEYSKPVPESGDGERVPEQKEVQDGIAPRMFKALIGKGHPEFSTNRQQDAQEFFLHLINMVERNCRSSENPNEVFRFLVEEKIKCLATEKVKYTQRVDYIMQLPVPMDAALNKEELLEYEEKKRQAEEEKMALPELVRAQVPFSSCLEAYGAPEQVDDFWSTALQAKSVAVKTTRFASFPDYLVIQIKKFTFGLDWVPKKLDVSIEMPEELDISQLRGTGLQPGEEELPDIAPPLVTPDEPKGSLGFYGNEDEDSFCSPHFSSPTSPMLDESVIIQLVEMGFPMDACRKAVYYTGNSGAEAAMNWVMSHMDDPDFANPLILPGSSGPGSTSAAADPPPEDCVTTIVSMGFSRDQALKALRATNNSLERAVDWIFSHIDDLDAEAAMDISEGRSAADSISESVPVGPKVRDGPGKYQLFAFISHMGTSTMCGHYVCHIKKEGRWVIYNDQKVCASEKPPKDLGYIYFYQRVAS
# No constants are given. Whether binding was seen depends on the method and setting. For some assays here: In cells and extracts the contact can be indirect. Some results given as binding are weak or reduced against the parent protein; the word gives no strength. For some assays here: Where a sequence is shown, tags or fusion partners need not be part of it.
# What was measured:
# GST-PFKP = target: T1, GST-PFKP (UniProt Q01813); experiment: pull-down; purified His-USP5 incubated with purified GST-PFKP or GST-Tag protein at 4 °C overnight; Glutathione Sepharose beads added for 4 h; eluted in SDS sample buffer, western blot; both purified
# T1 sequence: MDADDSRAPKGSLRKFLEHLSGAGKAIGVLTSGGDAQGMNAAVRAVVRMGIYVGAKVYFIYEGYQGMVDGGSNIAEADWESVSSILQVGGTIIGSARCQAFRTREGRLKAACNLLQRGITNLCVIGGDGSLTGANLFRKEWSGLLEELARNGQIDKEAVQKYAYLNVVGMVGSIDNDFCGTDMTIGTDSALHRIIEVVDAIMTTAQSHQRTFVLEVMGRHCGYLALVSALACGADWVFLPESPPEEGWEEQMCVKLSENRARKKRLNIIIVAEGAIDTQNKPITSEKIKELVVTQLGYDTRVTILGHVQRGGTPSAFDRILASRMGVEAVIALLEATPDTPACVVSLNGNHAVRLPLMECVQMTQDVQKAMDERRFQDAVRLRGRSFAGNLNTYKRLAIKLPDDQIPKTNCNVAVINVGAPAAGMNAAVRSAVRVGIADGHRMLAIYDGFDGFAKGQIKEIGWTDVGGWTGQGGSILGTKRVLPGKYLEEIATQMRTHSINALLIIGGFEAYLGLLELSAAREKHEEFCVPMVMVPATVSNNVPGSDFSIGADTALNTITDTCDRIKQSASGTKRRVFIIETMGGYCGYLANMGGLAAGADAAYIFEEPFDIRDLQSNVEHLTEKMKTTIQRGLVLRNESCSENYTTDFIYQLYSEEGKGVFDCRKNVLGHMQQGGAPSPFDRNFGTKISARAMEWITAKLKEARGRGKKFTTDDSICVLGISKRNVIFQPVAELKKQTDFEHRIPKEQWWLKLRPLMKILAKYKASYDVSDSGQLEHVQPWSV
# [1] = target: T2, ATP-dependent 6-phosphofructokinase, platelet type (human (endogenous in MDA-MB-231 and SUM-159)) (UniProt Q01813); experiment: co-IP; endogenous proteins in MDA-MB-231 and SUM-159 cell lysates; 2 µg anti-PFKP antibody and 3 µg anti-USP5 antibody per 500 µg of total protein
# T2 sequence: T1 sequence
Substance,binding (GST-PFKP),binding [1]
His-USP5 (from UniProt P45974 1-858) (enzyme),binds,–
Ubiquitin carboxyl-terminal hydrolase 5 (from UniProt P45974 1-858) (enzyme),–,binds
